We go through 7 substances from publication doi:10.1101/2020.04.03.023721.

Chains of the proteins cited; added tags and fusions are not shown. Lines headed by an entry give the natural chain unless they say otherwise; changes in a name come on top. Residues count along the entry.
UniProt Q8R4B8, whole entry: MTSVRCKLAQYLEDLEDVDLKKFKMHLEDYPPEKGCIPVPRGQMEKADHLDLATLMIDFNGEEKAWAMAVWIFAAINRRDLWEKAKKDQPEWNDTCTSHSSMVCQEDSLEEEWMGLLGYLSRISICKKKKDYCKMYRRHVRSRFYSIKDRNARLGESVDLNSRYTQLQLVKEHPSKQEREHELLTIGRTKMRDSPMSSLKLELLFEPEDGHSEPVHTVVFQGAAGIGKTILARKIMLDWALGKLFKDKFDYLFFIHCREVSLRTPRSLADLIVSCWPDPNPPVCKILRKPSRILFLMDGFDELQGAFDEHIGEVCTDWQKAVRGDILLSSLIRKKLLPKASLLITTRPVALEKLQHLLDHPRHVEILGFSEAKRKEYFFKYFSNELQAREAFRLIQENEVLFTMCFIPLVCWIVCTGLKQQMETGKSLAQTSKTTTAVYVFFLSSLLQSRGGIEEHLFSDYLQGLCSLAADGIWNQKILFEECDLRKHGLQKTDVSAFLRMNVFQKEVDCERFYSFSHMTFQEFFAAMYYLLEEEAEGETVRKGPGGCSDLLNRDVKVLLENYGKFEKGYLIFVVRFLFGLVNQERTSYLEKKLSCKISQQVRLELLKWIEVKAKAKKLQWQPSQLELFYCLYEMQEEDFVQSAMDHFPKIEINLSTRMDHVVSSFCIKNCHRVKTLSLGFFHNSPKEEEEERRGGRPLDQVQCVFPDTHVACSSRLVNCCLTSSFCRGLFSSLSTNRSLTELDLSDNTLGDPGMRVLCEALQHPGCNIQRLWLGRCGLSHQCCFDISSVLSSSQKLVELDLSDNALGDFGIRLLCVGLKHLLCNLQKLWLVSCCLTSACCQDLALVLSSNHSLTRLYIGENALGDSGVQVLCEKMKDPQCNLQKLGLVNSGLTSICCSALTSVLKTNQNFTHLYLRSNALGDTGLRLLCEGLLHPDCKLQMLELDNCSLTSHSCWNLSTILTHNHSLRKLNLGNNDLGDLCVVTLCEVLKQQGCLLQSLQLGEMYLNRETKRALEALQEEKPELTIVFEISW
UniProt Q96P20, whole entry: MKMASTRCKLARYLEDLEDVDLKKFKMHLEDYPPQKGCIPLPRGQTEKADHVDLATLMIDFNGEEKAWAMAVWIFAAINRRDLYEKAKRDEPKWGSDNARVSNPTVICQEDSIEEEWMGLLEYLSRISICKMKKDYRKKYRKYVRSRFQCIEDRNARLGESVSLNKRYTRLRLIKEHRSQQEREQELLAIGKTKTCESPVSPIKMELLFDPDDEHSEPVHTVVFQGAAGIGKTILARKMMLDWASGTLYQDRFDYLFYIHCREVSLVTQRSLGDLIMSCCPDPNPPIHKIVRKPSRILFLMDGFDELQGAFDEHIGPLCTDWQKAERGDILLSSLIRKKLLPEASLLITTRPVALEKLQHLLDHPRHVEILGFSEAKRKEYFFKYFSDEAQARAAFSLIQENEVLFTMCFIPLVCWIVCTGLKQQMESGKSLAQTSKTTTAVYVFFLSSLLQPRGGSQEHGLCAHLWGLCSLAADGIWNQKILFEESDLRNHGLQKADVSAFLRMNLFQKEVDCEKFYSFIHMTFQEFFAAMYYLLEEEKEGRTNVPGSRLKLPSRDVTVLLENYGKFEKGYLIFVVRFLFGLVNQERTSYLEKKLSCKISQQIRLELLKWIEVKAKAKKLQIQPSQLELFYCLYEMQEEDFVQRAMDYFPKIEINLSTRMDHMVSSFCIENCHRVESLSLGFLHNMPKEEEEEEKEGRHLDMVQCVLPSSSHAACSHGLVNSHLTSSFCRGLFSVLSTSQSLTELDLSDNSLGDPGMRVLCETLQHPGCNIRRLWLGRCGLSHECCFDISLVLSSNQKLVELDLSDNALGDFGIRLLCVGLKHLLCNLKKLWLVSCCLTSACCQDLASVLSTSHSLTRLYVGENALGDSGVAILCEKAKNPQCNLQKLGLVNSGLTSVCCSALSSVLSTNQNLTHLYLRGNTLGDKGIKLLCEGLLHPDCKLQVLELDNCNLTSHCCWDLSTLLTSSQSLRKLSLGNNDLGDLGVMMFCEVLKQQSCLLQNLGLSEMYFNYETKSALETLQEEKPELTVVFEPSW
UniProt Q96P20, 1-93: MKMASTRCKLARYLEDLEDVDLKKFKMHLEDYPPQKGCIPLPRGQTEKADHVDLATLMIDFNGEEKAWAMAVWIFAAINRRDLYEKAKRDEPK
UniProt P49023, whole entry: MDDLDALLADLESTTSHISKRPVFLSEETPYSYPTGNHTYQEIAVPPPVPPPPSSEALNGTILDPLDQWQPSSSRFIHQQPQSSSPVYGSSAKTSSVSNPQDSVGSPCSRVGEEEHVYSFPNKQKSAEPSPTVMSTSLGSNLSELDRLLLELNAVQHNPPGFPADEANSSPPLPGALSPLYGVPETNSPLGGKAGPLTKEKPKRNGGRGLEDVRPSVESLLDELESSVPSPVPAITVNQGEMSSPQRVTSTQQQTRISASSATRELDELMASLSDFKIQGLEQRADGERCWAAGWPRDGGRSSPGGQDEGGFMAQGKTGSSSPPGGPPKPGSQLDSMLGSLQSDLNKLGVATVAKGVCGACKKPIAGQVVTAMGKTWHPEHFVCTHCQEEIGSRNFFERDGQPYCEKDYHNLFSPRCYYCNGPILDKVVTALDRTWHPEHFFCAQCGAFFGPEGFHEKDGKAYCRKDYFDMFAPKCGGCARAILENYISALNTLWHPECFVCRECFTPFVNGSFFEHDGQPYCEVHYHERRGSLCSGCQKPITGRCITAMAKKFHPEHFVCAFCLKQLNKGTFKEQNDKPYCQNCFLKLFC
UniProt Q8VI36, whole entry: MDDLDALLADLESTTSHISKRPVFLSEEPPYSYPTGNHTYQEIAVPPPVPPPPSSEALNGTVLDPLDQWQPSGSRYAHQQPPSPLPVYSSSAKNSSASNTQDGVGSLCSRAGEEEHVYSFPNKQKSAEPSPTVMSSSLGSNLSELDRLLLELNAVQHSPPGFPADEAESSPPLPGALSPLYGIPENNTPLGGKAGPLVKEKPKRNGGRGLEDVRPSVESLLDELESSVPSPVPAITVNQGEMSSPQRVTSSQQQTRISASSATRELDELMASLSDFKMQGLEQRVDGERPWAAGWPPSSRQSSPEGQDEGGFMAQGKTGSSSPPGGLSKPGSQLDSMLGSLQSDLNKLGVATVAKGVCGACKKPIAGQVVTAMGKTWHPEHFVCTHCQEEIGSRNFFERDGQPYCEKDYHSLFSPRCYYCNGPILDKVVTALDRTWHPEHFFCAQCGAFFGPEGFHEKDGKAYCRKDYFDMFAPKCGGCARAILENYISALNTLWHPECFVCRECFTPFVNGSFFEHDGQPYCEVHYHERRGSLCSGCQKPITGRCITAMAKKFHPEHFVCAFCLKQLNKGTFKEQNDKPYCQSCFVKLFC

These are yes or no findings as the source states them, for the method shown. In cells and extracts the contact can be indirect. Some results given as binding are weak or reduced against the parent protein; the word gives no strength. For some of these results: Sequences can lack the tags named with a protein.

The target of assay [1] is NLRP3 (endogenous, mouse BMDMs) (mouse (endogenous in BMDMs of C57BL/6 mice)) (UniProt Q8R4B8). The assay is described as follows: co-IP.
In a further assay the target is Flag-NLRP3 (human) (UniProt Q96P20). In words: co-IP.
A further assay addresses T1, Flag-P2X7 (UniProt Q99572).
T1 sequence: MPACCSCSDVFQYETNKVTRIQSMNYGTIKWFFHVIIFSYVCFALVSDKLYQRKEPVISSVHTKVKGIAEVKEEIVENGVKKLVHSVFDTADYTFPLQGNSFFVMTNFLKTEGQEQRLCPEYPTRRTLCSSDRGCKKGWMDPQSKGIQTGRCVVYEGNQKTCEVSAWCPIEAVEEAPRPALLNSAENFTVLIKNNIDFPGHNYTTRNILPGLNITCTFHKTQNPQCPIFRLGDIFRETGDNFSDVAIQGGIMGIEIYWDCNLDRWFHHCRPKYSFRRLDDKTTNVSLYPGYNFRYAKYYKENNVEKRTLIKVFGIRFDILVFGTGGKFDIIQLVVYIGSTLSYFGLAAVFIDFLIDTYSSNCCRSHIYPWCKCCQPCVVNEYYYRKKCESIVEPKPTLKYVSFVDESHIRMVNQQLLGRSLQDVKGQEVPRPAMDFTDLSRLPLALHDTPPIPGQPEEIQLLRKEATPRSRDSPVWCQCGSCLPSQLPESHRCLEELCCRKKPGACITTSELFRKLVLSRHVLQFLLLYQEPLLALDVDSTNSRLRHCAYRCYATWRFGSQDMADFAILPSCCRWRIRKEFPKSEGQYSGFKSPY
The assay is described as follows: co-IP.

The next assay concerns the target T2, Flag-UPS13 (human) (UniProt Q92995).
T2 sequence: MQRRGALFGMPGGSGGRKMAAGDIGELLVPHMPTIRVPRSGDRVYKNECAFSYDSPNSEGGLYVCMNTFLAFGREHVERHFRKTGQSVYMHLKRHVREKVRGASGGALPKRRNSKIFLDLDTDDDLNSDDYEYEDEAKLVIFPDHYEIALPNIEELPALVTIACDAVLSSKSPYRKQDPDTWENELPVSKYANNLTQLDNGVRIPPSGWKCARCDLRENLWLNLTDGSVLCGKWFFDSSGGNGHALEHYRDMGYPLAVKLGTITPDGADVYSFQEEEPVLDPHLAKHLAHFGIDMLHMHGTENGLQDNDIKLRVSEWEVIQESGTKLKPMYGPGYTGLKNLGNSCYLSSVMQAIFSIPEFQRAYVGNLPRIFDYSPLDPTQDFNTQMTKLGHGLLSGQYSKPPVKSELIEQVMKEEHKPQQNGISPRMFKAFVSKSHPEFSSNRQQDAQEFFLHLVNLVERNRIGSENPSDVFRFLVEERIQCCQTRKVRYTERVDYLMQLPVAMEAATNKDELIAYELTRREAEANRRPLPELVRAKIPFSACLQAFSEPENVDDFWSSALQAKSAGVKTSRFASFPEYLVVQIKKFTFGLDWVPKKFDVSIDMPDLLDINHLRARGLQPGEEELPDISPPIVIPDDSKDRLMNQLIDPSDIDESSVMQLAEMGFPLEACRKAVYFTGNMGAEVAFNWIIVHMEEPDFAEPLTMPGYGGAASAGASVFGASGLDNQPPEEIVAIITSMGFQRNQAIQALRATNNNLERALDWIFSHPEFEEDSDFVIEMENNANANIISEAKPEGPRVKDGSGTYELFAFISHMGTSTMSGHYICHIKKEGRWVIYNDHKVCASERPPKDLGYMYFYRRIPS
In words: co-IP.

Assay [2] deals with T3, Flag-UPS13(1-300) (human) (UniProt Q92995).
T3 sequence: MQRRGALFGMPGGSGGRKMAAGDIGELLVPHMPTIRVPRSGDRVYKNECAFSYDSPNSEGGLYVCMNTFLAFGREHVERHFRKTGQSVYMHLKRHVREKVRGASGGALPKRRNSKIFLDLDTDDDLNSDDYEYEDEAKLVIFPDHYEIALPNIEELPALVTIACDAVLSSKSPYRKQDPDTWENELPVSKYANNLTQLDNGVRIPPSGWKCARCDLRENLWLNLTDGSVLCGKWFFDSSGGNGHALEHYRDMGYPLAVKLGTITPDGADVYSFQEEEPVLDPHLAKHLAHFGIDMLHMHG
In words: co-IP.

Assay [3] deals with T4, Flag-UPS13(301-624) (human) (UniProt Q92995).
T4 sequence: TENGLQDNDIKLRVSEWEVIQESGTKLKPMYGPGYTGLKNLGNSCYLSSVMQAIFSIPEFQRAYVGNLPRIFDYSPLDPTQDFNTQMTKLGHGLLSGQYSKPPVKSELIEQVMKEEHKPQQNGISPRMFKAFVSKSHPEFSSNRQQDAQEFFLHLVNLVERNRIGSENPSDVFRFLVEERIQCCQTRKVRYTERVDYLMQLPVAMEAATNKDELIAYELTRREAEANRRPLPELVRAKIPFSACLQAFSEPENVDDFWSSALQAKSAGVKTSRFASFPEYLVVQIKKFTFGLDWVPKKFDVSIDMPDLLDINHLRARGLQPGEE
The assay is described as follows: co-IP.

In assay [4] the target is T5, Flag-UPS13(301-863) (human) (UniProt Q92995).
T5 sequence: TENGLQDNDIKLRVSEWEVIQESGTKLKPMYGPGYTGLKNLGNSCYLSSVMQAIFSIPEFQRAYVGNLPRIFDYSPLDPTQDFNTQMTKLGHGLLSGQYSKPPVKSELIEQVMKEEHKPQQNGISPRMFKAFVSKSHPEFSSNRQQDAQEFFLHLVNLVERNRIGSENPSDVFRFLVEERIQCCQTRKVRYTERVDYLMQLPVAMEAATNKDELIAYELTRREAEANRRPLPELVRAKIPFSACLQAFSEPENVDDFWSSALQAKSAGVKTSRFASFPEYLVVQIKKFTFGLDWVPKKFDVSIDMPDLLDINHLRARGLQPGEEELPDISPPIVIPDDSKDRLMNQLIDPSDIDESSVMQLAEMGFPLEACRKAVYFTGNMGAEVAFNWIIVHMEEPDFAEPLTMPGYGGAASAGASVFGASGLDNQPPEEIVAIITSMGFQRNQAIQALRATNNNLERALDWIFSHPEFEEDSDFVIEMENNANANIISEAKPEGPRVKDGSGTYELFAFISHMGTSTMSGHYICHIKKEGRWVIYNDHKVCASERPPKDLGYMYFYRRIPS
In words: co-IP.

For assay [5], the target named is T6, Flag-UPS13(625-863) (human) (UniProt Q92995).
T6 sequence: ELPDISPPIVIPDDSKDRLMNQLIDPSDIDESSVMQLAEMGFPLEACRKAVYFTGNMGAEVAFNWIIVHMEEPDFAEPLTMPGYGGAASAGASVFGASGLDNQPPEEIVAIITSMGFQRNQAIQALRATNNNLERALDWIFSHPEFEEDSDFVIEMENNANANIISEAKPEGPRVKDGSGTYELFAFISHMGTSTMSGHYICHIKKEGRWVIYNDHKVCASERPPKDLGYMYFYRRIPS
The assay is described as follows: co-IP.

Assay [6] has as its target NLRP3 (endogenous, THP-1 macrophages) (human (endogenous in THP-1)) (UniProt Q96P20). In words: co-IP.
Assay [7] concerns the target T7, P2X7 (endogenous, THP-1 macrophages) (human (endogenous in THP-1)) (UniProt Q99572).
T7 sequence: T1 sequence
The assay is described as follows: co-IP.

The target of the next assay is GST-Paxillin (human) (UniProt P49023). In words: pull-down.

Consider “Paxillin (endogenous, mouse BMDMs) (from UniProt Q8VI36 1-591)”, for which the binding entry in assay [1] is “binds”.

For the substance “HA-Paxillin(Y31A) (from UniProt P49023 1-591)”, the binding result in the assay with Flag-NLRP3 (human) is listed as “binds”; with Flag-P2X7, “binds”; with Flag-UPS13 (human), “no binding”.

Regarding HA-NLRP3 (from UniProt Q96P20 1-1036), the binding entry with Flag-UPS13 (human) is on record as “binds”; in assay [2], “no binding”; in assay [3], “no binding”; in assay [4], “binds”; in assay [5], “binds”.

Take “Paxillin (endogenous, THP-1 macrophages) (from UniProt P49023 1-591)”: the binding result in assay [6] and in [7] was “binds” each time.

On to “HA-PYRIN (from UniProt Q96P20 1-93) (domain or fragment)”, for which, in the assay with Flag-UPS13 (human), the binding result was “no binding”.

Consider “HA-Paxillin(Y118A) (from UniProt P49023 1-591)”, for which the binding entry in the assay with Flag-NLRP3 (human) was “no binding”; in the assay with Flag-P2X7, “binds”; with Flag-UPS13 (human), “binds”.

On to Flag-NLRP3 (from UniProt Q96P20 1-1036), for which, in the assay with GST-Paxillin (human), the binding result is given as “binds”.
